Results are given in words; binding and its absence hold for the method and conditions named. Binding seen in cells or lysates may run through a third protein. These calls come from enrichment with a bait or labelling near it, and not all partners need be listed. Sequences can lack the tags named with a protein.

Sequences of proteins named here, by UniProt entry; tags and fusion partners are left off.
UniProt Q13547: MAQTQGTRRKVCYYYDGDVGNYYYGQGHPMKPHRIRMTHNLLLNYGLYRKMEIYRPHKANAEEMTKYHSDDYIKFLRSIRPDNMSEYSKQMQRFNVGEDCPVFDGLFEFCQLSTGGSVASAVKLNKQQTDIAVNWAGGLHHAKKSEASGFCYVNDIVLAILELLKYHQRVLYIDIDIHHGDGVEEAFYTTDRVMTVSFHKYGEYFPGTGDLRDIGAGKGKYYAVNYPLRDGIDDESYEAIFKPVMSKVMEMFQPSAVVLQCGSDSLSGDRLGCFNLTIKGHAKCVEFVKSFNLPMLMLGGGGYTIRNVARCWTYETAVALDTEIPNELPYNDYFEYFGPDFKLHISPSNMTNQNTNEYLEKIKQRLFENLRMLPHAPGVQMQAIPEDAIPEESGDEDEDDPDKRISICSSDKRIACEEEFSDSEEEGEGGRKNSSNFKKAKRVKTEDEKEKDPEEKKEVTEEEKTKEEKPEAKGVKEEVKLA

The assay has as its target HDAC1 (endogenous or tagged not stated; immunoprecipitates for mass spectrometry and co-IP with the PFK isoforms) (human) (UniProt Q13547). The assay can be described thus: affinity purification with mass spectrometry; mass spectrometry of HDAC1 immunoprecipitates.

B1: PFKL (endogenous or tagged not stated; immunoprecipitates for mass spectrometry, co-IP of the PFK isoforms, purified PFKL added to HDAC1) (enzyme, UniProt P17858 1-780)
chain: MAAVDLEKLRASGAGKAIGVLTSGGDAQGMNAAVRAVTRMGIYVGAKVFLIYEGYEGLVEGGENIKQANWLSVSNIIQLGGTIIGSARCKAFTTREGRRAAAYNLVQHGITNLCVIGGDGSLTGANIFRSEWGSLLEELVAEGKISETTARTYSHLNIAGLVGSIDNDFCGTDMTIGTDSALHRIMEVIDAITTTAQSHQRTFVLEVMGRHCGYLALVSALASGADWLFIPEAPPEDGWENFMCERLGETRSRGSRLNIIIIAEGAIDRNGKPISSSYVKDLVVQRLGFDTRVTVLGHVQRGGTPSAFDRILSSKMGMEAVMALLEATPDTPACVVTLSGNQSVRLPLMECVQMTKEVQKAMDDKRFDEATQLRGGSFENNWNIYKLLAHQKPPKEKSNFSLAILNVGAPAAGMNAAVRSAVRTGISHGHTVYVVHDGFEGLAKGQVQEVGWHDVAGWLGRGGSMLGTKRTLPKGQLESIVENIRIYGIHALLVVGGFEAYEGVLQLVEARGRYEELCIVMCVIPATISNNVPGTDFSLGSDTAVNAAMESCDRIKQSASGTKRRVFIVETMGGYCGYLATVTGIAVGADAAYVFEDPFNIHDLKVNVEHMTEKMKTDIQRGLVLRNEKCHDYYTTEFLYNLYSSEGKGVFDCRTNVLGHLQQGGAPTPFDRNYGTKLGVKAMLWLSEKLREVYRKGRVFANAPDSACVIGLKKKAVAFSPVTELKKDTDFEHRMPREQWWLSLRLMLKMLAQYRISMAAYVSGELEHVTRRTLSMDKGF
Regarding B1, the binding result is “binds”.

These data come from publication PMC12518634, “The noncanonical function of liver-type phosphofructokinase potentiates the efficacy of HDAC inhibitors in cancer” (Signal Transduction and Targeted Therapy, 2025).
